Measurements: patent publication US6017715A (priority 1996, dated 2000)

Assay: Calculation of Apparent Bioavailability Factor (ABF) in stormwater
Details: stormwater sample, Example 3(B)(2)

SMILES: CCOP(=S)(OCC)Oc1nc(Cl)c(Cl)cc1Cl [Chlorpyrifos, chlorpyrifos]
- Apparent Bioavailability Factor (ABF), bioavailable portion of total: 0.16

SMILES: CCOP(=S)(OCC)Oc1cc(C)nc(C(C)C)n1 [Diazinon, diazinon]
- Apparent Bioavailability Factor (ABF), bioavailable portion of total: 0.47
